Test results as given in paper PMC7819943, “Rice protein-binding microarrays: a tool to detect cis-acting elements near promoter regions in rice”.
The list shows a part of the results.

By UniProt entry, the sequences of proteins in these tests, tags left out.
UniProt Q0JBA9, entry or part of it: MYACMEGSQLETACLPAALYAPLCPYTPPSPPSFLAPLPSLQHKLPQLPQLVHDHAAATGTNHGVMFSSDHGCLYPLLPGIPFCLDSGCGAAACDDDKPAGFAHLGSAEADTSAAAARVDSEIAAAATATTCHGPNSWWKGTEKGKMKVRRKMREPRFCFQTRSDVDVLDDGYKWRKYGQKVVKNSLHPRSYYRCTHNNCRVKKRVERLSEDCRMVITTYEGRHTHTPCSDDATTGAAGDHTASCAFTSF

Biological target: OsWRKY34 (Oryza sativa, UniProt Q0JBA9 1-250)
Assay: protein-binding microarray (RPBM); PBS, 2% BSA, 51.3 ng/ul salmon testes DNA, 50 uM zinc acetate, 200 nM TF, 25 C, 1 h; high values mean tight binding
Details: protein: recombinant; tags: N-terminal polyhistidine and DsRed monomer fusion (pET32a); label: CyDye5-dUTP incorporated in the synthesized complementary strand; 3' TTTTT single-stranded linker to array surface; dsDNA, one strand shown
Outline: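 Binding signal is defined as the fluorescence intensity of each feature in arbitrary units, read on an Axon 4000B scanner. Transcription factors with N-terminal polyhistidine and DsRed fusions came from E. coli BL21-CodonPlus and were purified on Ni–NTA. They were incubated at 200 nM for 1 h at 25 °C on a custom Agilent array that had been made double-stranded with Cy5-dUTP, with 50 µM zinc acetate present, and the array was washed.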

Sequence | binding signal
CATCCAATTCCTGTGTTTTTCCTGTGGTTCAATCAAACGGCGGAGTCACCTAGTGCAG | 11400 fluorescence intensity (a.u.)
CTCCCTCTGTTTCAAAATATTTGACACTGTTGACTTTTTACGGAGTCACCTAGTGCAG | 11000 fluorescence intensity (a.u.)
AGGTCTAGCCGGCATAGCTTTGGATCATATTTATTTCTTACGGAGTCACCTAGTGCAG | 8050 fluorescence intensity (a.u.)
ACATGTGGAGGGAACAGGGCGTGGAATCAAGGGTCGGGATCGGAGTCACCTAGTGCAG | 8290 fluorescence intensity (a.u.)
GGCGCGTTGTAGGCAGGGGTGGCGTTGCGATGCAGTCGGCCGGAGTCACCTAGTGCAG | 8480 fluorescence intensity (a.u.)
TCCCCATCTGCCTCTTTACTCTCCTTCCCACCCCTCTATGCGGAGTCACCTAGTGCAG | 8720 fluorescence intensity (a.u.)
GTACCCTACTCTTATACTCCTCTATACAAATACAACTACACGGAGTCACCTAGTGCAG | 8370 fluorescence intensity (a.u.)
AGCTCGTGTTAATTGTTAAAATTTCCTCACCAGTTTGCAACGGAGTCACCTAGTGCAG | 8350 fluorescence intensity (a.u.)
CCATCCTCACCGTCGTCGCTGCCGCGCGTCCCTTCCCCTCCGGAGTCACCTAGTGCAG | 8160 fluorescence intensity (a.u.)
CCAGATTTGCTCCTTCTTTCATTGATCTTTACATCAAATTCGGAGTCACCTAGTGCAG | 9620 fluorescence intensity (a.u.)
CAGATTTTTAGCCACTGGATGAGCTTCATGATTCGTGCTCCGGAGTCACCTAGTGCAG | 8100 fluorescence intensity (a.u.)
AATAGGGCAAGCACTTTTCATAGTATATATTTATCTTTTTCGGAGTCACCTAGTGCAG | 8110 fluorescence intensity (a.u.)
CCCGTCGTTGTCCACCCCGTCCCATTCCACGACCGTCGTCCGGAGTCACCTAGTGCAG | 12000 fluorescence intensity (a.u.)
CGATCACTTCACCTAACTCGATCGCTTAATTTCCAGCAACCGGAGTCACCTAGTGCAG | 8720 fluorescence intensity (a.u.)
GTGGGAGTGGCGGTGTCGGGTCCGGAACGAAACGGCGGGGCGGAGTCACCTAGTGCAG | 10300 fluorescence intensity (a.u.)
TATTTGCCCTGCTCTCACCCGGCTCCTGATCTCCTCGTCCCGGAGTCACCTAGTGCAG | 9420 fluorescence intensity (a.u.)
GCTCTAACACACCTTCATCATGCATGCATATGTGCTATTTCGGAGTCACCTAGTGCAG | 8080 fluorescence intensity (a.u.)
GTTTTTGGGACGGAGGGAGTATTTGTTTGTGTTTGAATTGCGGAGTCACCTAGTGCAG | 9560 fluorescence intensity (a.u.)
GGAGAGAGAGATTAGGGGTAGGGTAGTAAAAATATATATGCGGAGTCACCTAGTGCAG | 11100 fluorescence intensity (a.u.)
TCACTGGCCTTTATTTTGTGGCGGCTCCAAATTCCGCCAGCGGAGTCACCTAGTGCAG | 8580 fluorescence intensity (a.u.)
TCTCTTTTACCTCAATCTCGTATATACCCTGGTACCGACGCGGAGTCACCTAGTGCAG | 11400 fluorescence intensity (a.u.)

Sequence | binding signal
TCAGCTATCATAGTCTTCTAGAATGCTCTTCTTGTCAGATCGGAGTCACCTAGTGCAG | 8220 fluorescence intensity (a.u.)
AAGTTGGGTTTCGGATCTTGGAAGGTTAGGAGATACAGTACGGAGTCACCTAGTGCAG | 9660 fluorescence intensity (a.u.)
CACAGTGCACATATATAAATGCACCCCACTTATTGCTCTCCGGAGTCACCTAGTGCAG | 8440 fluorescence intensity (a.u.)
ATGAATATGCGAGCCCATAAAGCACCATGTCTTCTTCTCGCGGAGTCACCTAGTGCAG | 8400 fluorescence intensity (a.u.)
AGAACTGGTTTCTTGTAGCTTGATTGTGTTGTTACTCCTGCGGAGTCACCTAGTGCAG | 8440 fluorescence intensity (a.u.)
ATGTTGCCACTTTCATATGTCGAACAATTAGTACTTATATCGGAGTCACCTAGTGCAG | 9290 fluorescence intensity (a.u.)
CGCTGAGTCGAACGGCACTGTCATTTATTTTTTTTTAGTTCGGAGTCACCTAGTGCAG | 9360 fluorescence intensity (a.u.)
CTAAACCGCTTCCTAACCACATAGTTAATTGTATATATGCCGGAGTCACCTAGTGCAG | 8670 fluorescence intensity (a.u.)
TTCGTTTGCACTTGCATCCACGTCGTTCGGTAAATTTTTTCGGAGTCACCTAGTGCAG | 9350 fluorescence intensity (a.u.)
TTTCACCGCTCTCTCTCTCTCTCTCTCTCTCTCTCTCTCTCGGAGTCACCTAGTGCAG | 8290 fluorescence intensity (a.u.)
TTGGGGTTAACCTGGTCTGAATCGGTGATGTGGGAGGGGACGGAGTCACCTAGTGCAG | 13000 fluorescence intensity (a.u.)
ATCTTGAGAGGTCACAGATATCCTGATCCTGCTGTTTTTTCGGAGTCACCTAGTGCAG | 8300 fluorescence intensity (a.u.)
CACCATCTATCACTTGCTCTACCAACGCCGATTTTTACTGCGGAGTCACCTAGTGCAG | 12200 fluorescence intensity (a.u.)
GTATTCGCAGCCATCCGTCCATCCGTGTCAGCGTCACTCACGGAGTCACCTAGTGCAG | 10200 fluorescence intensity (a.u.)
GCATCCTCCTAATCCACCCACAGAGCAACCGGTATGTTCTCGGAGTCACCTAGTGCAG | 8900 fluorescence intensity (a.u.)
GTCTTTTTCTCAACTCCAAACTTCAACTTTCTTGTTTTTCCGGAGTCACCTAGTGCAG | 8550 fluorescence intensity (a.u.)
GACTATATTCATCAAATTTCACTCGATTTGTACATTTTTACGGAGTCACCTAGTGCAG | 9110 fluorescence intensity (a.u.)
CCCCAATGCATTTCTCTCTCTACCTGCGTGTTTGACTGCACGGAGTCACCTAGTGCAG | 11300 fluorescence intensity (a.u.)
AACGATTTCTTCAGCATTTTCCATCCCCGCGGCTTCTTCTCGGAGTCACCTAGTGCAG | 8230 fluorescence intensity (a.u.)
TTCTTCGTTTTTCTGAGTACGATCTCCCAGGGTTATAATCCGGAGTCACCTAGTGCAG | 8850 fluorescence intensity (a.u.)
TTCAGTCTGCCACACTGTCGTTTTTTTGCTTTCATGGTTTCGGAGTCACCTAGTGCAG | 8900 fluorescence intensity (a.u.)

Sequence | binding signal
GGGCCGGTGTTTTCGGTTTGTGCGGTGCGCGGCATGTGTACGGAGTCACCTAGTGCAG | 8370 fluorescence intensity (a.u.)
AATGTTCAGTCTCAGGTATTTATGAGCCCTGGAGCCTTATCGGAGTCACCTAGTGCAG | 8230 fluorescence intensity (a.u.)
GTCCTCAGCCACTACTGCCGTTGTTGACACGCCGTCCATTCGGAGTCACCTAGTGCAG | 8430 fluorescence intensity (a.u.)
GGGAAGACGGTGGGGCGGGGACAGAGGTAGGGGAAGGAGGCGGAGTCACCTAGTGCAG | 12600 fluorescence intensity (a.u.)
GGATCATCACTGTGAGCCTGTTGGTTTGTTTGTAGGAGTTCGGAGTCACCTAGTGCAG | 11100 fluorescence intensity (a.u.)
TATTCCAGTCAACAGGCCACATTCTCCCACATGCCTTGATCGGAGTCACCTAGTGCAG | 8700 fluorescence intensity (a.u.)
TGACAGTGTGATGTGCTTGTTCGCTCTGATTTGATTTTGGCGGAGTCACCTAGTGCAG | 8050 fluorescence intensity (a.u.)
ATCTGCCGGGTTTCCTAACTTTTATGTTCCATTTCATTTTCGGAGTCACCTAGTGCAG | 9270 fluorescence intensity (a.u.)
TATTCTATACTCCGGGATTGGCGTTTTCTTTTTCGCGGCACGGAGTCACCTAGTGCAG | 9240 fluorescence intensity (a.u.)
CGACCGTTTTCAACCGTATGTATTAAGTAATGTTGTATTTCGGAGTCACCTAGTGCAG | 9180 fluorescence intensity (a.u.)
AGTAGTATCATTACCACGCTTATCTGTACTTTGCAAGTTACGGAGTCACCTAGTGCAG | 8140 fluorescence intensity (a.u.)
TGCTGACATCATCTTCGTAGCCTCAAACACACTCTAATTTCGGAGTCACCTAGTGCAG | 10400 fluorescence intensity (a.u.)
ACTTAGAGCAACTTCAACAGACTCTTTATTTAGCTCTCCACGGAGTCACCTAGTGCAG | 8030 fluorescence intensity (a.u.)
GTCTTCCTGCGCTGCCTCTCGCCGTCTCGCGGATCATCGTCGGAGTCACCTAGTGCAG | 8240 fluorescence intensity (a.u.)
CACTACTACGTCGTCCAGTGTAGTTTGGGCCGTTTGTATTCGGAGTCACCTAGTGCAG | 8810 fluorescence intensity (a.u.)
ATTTGGTTACGAAATCTTTTGATTCTACTGTCTGGATTTTCGGAGTCACCTAGTGCAG | 8080 fluorescence intensity (a.u.)
GACTTTCCGACCCTAACTCAGTTTTAGCTTCCGCATAAAGCGGAGTCACCTAGTGCAG | 11400 fluorescence intensity (a.u.)
AGATAAGGCCGCGCGCTCTCCACCACCACGGCCGCGAATGCGGAGTCACCTAGTGCAG | 8440 fluorescence intensity (a.u.)
GGGTTCTTTCTGTAGTAGGGGTTTTTCTTTGTTTTCTCTTCGGAGTCACCTAGTGCAG | 17700 fluorescence intensity (a.u.)
CGATTTCGCACGCCACCGTAAACTTCCTTTAGTTTTTTTTCGGAGTCACCTAGTGCAG | 12700 fluorescence intensity (a.u.)
CCGAGTTTGGCGTTCTCTCCCAATTGTTTCTTCGATATTTCGGAGTCACCTAGTGCAG | 13300 fluorescence intensity (a.u.)

Exported as tab-separated lines: part of the list above.
Sequence	binding signal
AATGTTCAGTCTCAGGTATTTATGAGCCCTGGAGCCTTATCGGAGTCACCTAGTGCAG	8230 fluorescence intensity (a.u.)
GGGAAGACGGTGGGGCGGGGACAGAGGTAGGGGAAGGAGGCGGAGTCACCTAGTGCAG	12600 fluorescence intensity (a.u.)
TGACAGTGTGATGTGCTTGTTCGCTCTGATTTGATTTTGGCGGAGTCACCTAGTGCAG	8050 fluorescence intensity (a.u.)
AGATAAGGCCGCGCGCTCTCCACCACCACGGCCGCGAATGCGGAGTCACCTAGTGCAG	8440 fluorescence intensity (a.u.)

Later entries.

Sequence | binding signal
TCGTGGTGGTGGTGGTGGTGGAAGTTAGGGTTTGAGGGTTCGGAGTCACCTAGTGCAG | 17300 fluorescence intensity (a.u.)
CTCCGCGTCTAGCCGCGGGTGACGTCAGCACCACCACCATCGGAGTCACCTAGTGCAG | 8620 fluorescence intensity (a.u.)
GAGCACACTGTAATGCAGCCAAATATATTGCTCTATTTCTCGGAGTCACCTAGTGCAG | 9160 fluorescence intensity (a.u.)
GGGGATACCAGTATTGGGTACTCGGGATTTGGCCAACATTCGGAGTCACCTAGTGCAG | 9160 fluorescence intensity (a.u.)
ACCCTCCTGCTGCGCCTTTGACCCGGCCATCCGTTCTCTCCGGAGTCACCTAGTGCAG | 13400 fluorescence intensity (a.u.)
CGTCCTTGCCCTGGCCTTTGCGTGGCTCTTCACTTTCAGACGGAGTCACCTAGTGCAG | 11800 fluorescence intensity (a.u.)
CGTTCCACCGCCGCGCCTCTTCCCCGCCCCGATCGGCTGCCGGAGTCACCTAGTGCAG | 8810 fluorescence intensity (a.u.)
CTAAGTTTTGTTCATCGTGTTTTGGAAGCATTTGTTGATTCGGAGTCACCTAGTGCAG | 8920 fluorescence intensity (a.u.)
CTTCTGCTTCTGGTTCTGGTTCGCCTTCCTAGTTCCTACCCGGAGTCACCTAGTGCAG | 8330 fluorescence intensity (a.u.)
TGGTAACTGTCTGCACTACGATCTCTTAGTTCTGCCATCACGGAGTCACCTAGTGCAG | 8080 fluorescence intensity (a.u.)
ACAGTTGAAATTTGAAGTACGCTGTGTTAGTAGTATAAGTCGGAGTCACCTAGTGCAG | 8360 fluorescence intensity (a.u.)
TGTTCAGTTCATCATGCCTATTCATTTTGCTAACATTTGACGGAGTCACCTAGTGCAG | 12700 fluorescence intensity (a.u.)
TGCGATTTCAGGCTGCCGGTTGGCCAATTTACTAATTAAACGGAGTCACCTAGTGCAG | 9150 fluorescence intensity (a.u.)
ATATTTGACACCGTTGACTTTTTAGCACATGTTTGACTGTCGGAGTCACCTAGTGCAG | 33000 fluorescence intensity (a.u.)
CTGCCTCACCCTAGCTTAGTACTTGCAACTTTGCTTTGCTCGGAGTCACCTAGTGCAG | 8240 fluorescence intensity (a.u.)
ATGTCTTTGTGCTTTTTTTTGTTAGGAAAAAATCTTCTTTCGGAGTCACCTAGTGCAG | 9400 fluorescence intensity (a.u.)
ACTTCATTCTCCCGTCTATAAATCCATCCACAGCTAGCCACGGAGTCACCTAGTGCAG | 10100 fluorescence intensity (a.u.)
ACCGATGACTTTTGGCAAAACTTACAGTAAAACTGCTTATCGGAGTCACCTAGTGCAG | 8850 fluorescence intensity (a.u.)
CATTGTGTGGTCCACTCAAGCACGTTTCCATCTCCCTTGACGGAGTCACCTAGTGCAG | 9610 fluorescence intensity (a.u.)
GAGCCTGCTTTGTTTTCTTAATTTGTCATGATCTTTCATCCGGAGTCACCTAGTGCAG | 10500 fluorescence intensity (a.u.)
TCGCTCGCTCGCCGTCCGCCGCCGCCGCCTTGCTCAGTTGCGGAGTCACCTAGTGCAG | 8220 fluorescence intensity (a.u.)
